# Earlier results in PMC3438292 (Journal of medicinal chemistry, 2010).
# Tested on: 5-HT2B receptor
# Conditions: cited from earlier work
compound,measurement,value
CCN(CC)C(=O)N[C@H]1C=C2c3cccc4[nH]cc(c34)C[C@H]2N(C)C1 [lisuride],activation of 5-HT2B receptors,do not activate
